Marks after values point to notes of the source that are not given here.

In patent US20160311788A1, “Antifouling Compounds And Use Thereof” (National University of Singapore, priority 2008, published 2016) one finds TR data, which are given here for ten molecules.

This series concerns cyprids of Balanus amphitrite. As to the kind of experiment: barnacle settlement assay. Particulars: Therapeutic Ratio, LD50/ED50. Type of series: in vivo. The procedure: Pure compounds were suspended in DMSO and sonicated to obtain a stock solution of 50 mg ml^−1 in DMSO. This stock solution is stored at −20° C. in 4 ml amber screw cap vials. For the bioassays, a small volume of stock solution was added to 1 μm filtered seawater in a glass scintillation vial. This suspension was then sonicated around 10 minutes. Serial dilutions were generated to the required range of concentrations. Serial dilution of the equivalent amounts of DMSO in seawater was used as the control.
The barnacle bioassay method used follows from the method first introduced by Rittschof et al. (1992), and subsequently by other authors (Willemsen et al., 1998). This method is now standard practice for many antifouling screening of novel compounds.
Barnacle settlement assays were based on methodology from Rittschof et al. (1992). Barnacle larvae from field-collected adults were reared on an algal mixture of 1:1 v/v of Tetraselmis suecica and Chaetoceros muelleri at 25° C., at approximately 5×10^5 cells per ml density. On this regime, larvae metamorphose to cyprids in 5 days. These cyprids were aged at 4° C. for 2-3 days, and 45-70% settlement after 24 hours (Willemsen et al., 1998).
Settlement tests were conducted in 7 ml neutral glass vials (Samco® T1 03N1) 34 mm by 23 mm diameter, with 20-40 cyprids per well. Test solutions were made up to twice the required final concentration. 0.5 ml of test solution was added into each well, and cyprids were transferred into each well in 0.5 ml of seawater. Assays were done in triplicate. As before, there were two sets of controls, a blank control consisting 3 tubes of seawater only, and DMSO control consisting of the equivalent dilution series with DMSO without compound. After 24 hours, larvae that had attached and metamorphosed were enumerated and the result expressed as percentage settlement. Larvae not attached were scored as not settled. The assays were repeated and the concentration that caused 50% settlement inhibition (ED50) was determined by pro bit analysis using a basic computer program (Lieberman, 1983), or by estimation from graphed data.
For the molecule `OC1(c2ccc(Cl)cc2)CCNCC1` [Compound 3.4], the TR is on record as 0.19. To `O=C(C(c1ccccc1)c1ccccc1)N1CCCCC1` [Compound 4.1, 2,2-Diphenyl-1-(piperidin-1-yl)ethanone] belongs ~21.27*; to `CN1CCN(C(=O)C(c2ccccc2)c2ccccc2)CC1` [Compound 4.2, 1-(4-Methylpiperazin-1-yl)-2,2-diphenylethanone], ~0.29*; to `CN1CCC(O)(c2ccccc2)CC1` [Compound 4.4], 2.07. To `O=C(C(c1ccccc1)c1ccccc1)N1CCC(O)(c2ccccc2)CC1` [Compound 4.5] belongs ~7.72*. The value for `O=C(C(c1ccccc1)c1ccccc1)N1CCC(CCO)CC1` [Compound 9.2] was ~0.98*; that for `O=C(Cc1ccccc1)N1CCC(O)(c2ccccc2)CC1` [Compound 10.4] was ~3.33*. As to `CCCCC(CCCC)C(=O)N(C)C` [Compound 12.3], the TR was ~18.12*. Take `CCCCCCC(CCCC)C(=O)N1CCCCC1` (stereo not shown) [Compound 12.8]: the TR entry is recorded as “greater than one”. The value for `CN(C)C(=O)C(CCN1CCC(O)(c2ccc(Cl)cc2)CC1)(c1ccccc1)c1ccccc1` [LOP, loperamide, reference compound] was 4.22.
